The supplement of paper PMC10849652
Some of the results follow.

Protein sequences, listed by entry. Tags and fused reporters are not part of them. Lines headed by an entry give the natural chain unless they say otherwise; changes in a name come on top.
UniProt O75197: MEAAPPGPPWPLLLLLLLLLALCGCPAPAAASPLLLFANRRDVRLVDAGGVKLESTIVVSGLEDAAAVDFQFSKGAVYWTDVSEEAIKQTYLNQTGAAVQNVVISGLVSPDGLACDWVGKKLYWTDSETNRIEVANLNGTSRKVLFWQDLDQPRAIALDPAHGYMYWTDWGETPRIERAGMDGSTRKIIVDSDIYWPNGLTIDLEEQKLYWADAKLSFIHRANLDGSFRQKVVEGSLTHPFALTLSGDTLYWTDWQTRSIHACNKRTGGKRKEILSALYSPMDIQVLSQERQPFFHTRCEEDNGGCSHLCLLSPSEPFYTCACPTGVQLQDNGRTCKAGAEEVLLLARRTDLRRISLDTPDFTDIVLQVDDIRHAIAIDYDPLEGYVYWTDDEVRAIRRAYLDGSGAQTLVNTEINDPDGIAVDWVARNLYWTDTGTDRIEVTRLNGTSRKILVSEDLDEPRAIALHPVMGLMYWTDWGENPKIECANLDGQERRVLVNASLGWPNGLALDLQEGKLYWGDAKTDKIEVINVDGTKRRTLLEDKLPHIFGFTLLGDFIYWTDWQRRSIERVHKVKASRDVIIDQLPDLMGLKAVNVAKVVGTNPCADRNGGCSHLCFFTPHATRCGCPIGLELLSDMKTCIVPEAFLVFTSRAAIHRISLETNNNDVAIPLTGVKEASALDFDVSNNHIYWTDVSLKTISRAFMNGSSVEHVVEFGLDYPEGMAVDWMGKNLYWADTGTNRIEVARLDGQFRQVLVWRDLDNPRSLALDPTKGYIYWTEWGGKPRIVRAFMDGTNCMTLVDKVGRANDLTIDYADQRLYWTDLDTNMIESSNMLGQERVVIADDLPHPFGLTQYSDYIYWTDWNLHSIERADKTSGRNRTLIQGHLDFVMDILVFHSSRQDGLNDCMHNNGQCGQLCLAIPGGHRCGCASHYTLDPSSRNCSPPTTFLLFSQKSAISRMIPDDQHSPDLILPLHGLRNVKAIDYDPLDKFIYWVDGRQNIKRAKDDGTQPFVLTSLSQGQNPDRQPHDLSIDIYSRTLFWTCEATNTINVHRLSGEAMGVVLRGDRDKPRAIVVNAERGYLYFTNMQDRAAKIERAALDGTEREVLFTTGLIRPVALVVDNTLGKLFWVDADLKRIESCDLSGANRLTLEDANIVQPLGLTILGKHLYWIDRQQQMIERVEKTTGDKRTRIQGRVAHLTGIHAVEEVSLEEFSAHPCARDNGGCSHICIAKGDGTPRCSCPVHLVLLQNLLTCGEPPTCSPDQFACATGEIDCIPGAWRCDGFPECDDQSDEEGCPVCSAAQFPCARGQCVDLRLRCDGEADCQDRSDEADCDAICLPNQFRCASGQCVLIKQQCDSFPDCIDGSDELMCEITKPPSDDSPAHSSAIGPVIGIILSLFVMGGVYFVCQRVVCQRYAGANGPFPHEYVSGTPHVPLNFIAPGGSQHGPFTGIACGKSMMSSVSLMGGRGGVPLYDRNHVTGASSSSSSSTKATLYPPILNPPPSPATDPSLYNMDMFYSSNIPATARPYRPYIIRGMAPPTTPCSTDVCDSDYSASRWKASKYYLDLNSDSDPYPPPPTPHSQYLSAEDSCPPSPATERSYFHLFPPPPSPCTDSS
UniProt P61968: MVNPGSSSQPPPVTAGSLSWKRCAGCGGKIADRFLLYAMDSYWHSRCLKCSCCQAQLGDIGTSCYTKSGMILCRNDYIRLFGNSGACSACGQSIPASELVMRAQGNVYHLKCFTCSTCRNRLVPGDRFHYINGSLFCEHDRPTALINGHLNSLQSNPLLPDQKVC
UniProt O15243: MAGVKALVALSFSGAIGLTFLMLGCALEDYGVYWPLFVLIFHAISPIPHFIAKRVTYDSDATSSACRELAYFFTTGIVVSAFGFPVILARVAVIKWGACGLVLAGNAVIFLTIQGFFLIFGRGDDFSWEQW
UniProt O95214: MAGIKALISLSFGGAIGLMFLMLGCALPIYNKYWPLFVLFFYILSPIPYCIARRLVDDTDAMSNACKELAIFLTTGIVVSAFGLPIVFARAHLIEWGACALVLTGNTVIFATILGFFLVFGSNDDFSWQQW
UniProt O15230: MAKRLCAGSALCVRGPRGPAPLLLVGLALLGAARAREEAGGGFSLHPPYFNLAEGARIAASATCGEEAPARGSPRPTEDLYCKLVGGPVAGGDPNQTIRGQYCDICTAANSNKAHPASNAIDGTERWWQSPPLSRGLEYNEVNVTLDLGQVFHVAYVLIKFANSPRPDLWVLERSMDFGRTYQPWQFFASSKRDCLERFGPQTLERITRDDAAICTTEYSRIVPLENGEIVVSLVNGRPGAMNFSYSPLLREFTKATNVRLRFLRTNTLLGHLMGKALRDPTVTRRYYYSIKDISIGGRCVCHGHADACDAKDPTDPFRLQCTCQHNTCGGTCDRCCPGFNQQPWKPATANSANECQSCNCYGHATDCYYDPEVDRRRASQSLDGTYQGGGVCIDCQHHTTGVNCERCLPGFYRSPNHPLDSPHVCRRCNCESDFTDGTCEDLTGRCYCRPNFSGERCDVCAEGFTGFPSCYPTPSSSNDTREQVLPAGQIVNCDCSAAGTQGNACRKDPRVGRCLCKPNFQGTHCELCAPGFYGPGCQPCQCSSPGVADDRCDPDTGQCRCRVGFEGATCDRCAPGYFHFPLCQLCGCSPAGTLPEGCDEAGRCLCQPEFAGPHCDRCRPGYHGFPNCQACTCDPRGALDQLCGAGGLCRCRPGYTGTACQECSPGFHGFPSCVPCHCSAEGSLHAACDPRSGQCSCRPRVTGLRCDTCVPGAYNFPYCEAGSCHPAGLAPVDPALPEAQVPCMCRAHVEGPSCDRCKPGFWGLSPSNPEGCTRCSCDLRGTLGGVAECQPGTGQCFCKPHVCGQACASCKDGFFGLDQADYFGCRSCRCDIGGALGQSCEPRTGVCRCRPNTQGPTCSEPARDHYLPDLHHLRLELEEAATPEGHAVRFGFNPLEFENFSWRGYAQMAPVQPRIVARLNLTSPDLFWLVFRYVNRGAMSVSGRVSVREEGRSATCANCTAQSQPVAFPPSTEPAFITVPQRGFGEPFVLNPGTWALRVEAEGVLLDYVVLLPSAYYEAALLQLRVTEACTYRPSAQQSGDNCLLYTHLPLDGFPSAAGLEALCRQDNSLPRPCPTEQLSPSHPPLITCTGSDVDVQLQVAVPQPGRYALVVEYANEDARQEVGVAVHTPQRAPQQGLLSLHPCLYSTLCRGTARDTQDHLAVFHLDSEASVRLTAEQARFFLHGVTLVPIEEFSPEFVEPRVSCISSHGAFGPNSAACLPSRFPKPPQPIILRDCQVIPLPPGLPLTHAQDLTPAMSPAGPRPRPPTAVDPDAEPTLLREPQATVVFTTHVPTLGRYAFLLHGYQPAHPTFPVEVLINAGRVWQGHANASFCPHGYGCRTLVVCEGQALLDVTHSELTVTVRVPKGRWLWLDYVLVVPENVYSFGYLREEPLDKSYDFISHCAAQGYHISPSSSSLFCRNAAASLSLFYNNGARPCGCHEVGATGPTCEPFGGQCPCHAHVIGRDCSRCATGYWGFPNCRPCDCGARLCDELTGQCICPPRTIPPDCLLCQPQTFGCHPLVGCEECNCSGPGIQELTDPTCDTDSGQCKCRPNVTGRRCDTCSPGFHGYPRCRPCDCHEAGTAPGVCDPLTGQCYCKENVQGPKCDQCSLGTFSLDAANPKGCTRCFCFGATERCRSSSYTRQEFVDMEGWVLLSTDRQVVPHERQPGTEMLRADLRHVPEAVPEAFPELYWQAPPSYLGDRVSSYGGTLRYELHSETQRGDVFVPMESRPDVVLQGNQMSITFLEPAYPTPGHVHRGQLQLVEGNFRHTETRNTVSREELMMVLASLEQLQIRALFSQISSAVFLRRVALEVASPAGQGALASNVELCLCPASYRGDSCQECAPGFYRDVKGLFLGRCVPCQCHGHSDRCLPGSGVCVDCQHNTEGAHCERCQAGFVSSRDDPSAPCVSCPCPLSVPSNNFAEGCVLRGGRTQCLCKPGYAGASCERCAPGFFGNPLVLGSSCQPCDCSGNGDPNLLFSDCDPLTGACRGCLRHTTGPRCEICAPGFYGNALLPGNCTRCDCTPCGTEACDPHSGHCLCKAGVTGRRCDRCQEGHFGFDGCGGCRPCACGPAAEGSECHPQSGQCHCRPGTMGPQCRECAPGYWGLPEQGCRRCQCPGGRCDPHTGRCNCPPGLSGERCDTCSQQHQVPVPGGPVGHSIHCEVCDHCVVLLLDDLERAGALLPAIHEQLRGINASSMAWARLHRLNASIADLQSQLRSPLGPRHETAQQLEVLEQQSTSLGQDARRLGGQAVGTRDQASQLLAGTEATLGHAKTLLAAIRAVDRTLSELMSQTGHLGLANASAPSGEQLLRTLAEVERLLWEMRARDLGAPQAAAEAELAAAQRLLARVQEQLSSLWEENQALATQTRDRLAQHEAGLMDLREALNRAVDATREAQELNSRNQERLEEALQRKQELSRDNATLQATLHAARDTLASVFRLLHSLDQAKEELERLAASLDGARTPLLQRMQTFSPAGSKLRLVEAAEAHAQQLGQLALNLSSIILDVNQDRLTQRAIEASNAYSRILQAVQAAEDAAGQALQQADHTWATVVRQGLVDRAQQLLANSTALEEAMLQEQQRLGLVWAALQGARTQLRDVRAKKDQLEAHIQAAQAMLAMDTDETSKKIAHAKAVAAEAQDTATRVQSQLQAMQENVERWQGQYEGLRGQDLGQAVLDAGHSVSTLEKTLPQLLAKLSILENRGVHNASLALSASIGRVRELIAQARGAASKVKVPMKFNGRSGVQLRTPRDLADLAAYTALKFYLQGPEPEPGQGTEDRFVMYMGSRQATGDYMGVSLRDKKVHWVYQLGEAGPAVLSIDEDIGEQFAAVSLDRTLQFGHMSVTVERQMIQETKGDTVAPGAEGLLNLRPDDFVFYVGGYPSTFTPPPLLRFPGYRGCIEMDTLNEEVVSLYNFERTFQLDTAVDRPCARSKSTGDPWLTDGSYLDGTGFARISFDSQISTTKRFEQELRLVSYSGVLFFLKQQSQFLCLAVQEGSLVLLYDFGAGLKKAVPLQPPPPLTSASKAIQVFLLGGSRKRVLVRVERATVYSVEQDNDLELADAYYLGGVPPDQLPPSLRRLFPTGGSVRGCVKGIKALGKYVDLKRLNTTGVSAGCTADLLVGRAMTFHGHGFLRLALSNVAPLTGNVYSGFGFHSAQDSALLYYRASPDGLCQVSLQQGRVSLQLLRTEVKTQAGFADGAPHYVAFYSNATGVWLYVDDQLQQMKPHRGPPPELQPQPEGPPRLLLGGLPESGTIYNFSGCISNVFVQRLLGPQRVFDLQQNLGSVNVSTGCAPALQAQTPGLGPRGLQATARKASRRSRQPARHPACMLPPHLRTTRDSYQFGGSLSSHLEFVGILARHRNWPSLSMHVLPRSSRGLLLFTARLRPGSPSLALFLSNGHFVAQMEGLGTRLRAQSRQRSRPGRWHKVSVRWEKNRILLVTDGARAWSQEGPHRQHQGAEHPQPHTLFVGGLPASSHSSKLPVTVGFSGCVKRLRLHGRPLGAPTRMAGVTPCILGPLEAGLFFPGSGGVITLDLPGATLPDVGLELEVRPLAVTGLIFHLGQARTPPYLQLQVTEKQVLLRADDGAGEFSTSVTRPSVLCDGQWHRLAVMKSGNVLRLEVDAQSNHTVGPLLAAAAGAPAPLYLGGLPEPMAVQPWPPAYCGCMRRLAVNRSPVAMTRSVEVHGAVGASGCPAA
UniProt Q9Y546: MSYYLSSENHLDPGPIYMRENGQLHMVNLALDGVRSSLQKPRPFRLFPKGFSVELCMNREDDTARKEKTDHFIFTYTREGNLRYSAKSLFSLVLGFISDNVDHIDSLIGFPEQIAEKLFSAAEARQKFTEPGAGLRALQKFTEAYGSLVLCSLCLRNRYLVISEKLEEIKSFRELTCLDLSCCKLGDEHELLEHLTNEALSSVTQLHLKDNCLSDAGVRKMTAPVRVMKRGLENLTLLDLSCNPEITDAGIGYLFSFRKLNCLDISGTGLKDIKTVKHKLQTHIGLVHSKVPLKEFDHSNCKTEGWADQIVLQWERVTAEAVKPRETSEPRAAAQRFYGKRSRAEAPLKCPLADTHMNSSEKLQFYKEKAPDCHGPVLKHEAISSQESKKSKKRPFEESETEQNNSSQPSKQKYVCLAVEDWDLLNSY
UniProt P13473: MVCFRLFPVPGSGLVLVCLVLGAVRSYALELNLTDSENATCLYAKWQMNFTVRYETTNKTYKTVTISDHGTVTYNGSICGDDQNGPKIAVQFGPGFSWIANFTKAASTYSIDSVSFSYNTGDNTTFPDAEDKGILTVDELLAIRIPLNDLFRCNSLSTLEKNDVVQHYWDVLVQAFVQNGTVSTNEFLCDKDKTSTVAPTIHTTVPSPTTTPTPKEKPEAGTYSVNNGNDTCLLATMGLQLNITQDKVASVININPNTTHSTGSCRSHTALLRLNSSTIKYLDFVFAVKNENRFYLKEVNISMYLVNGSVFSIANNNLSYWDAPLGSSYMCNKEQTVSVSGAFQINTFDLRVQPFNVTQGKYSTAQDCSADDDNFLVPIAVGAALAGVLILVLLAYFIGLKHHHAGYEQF

compound: Cc1cc(SCc2sc(-c3ccc(C(F)(F)F)cc3)nc2C)ccc1OCC(=O)O; experiment: log2 fold change, soluble protein after heating vs DMSO (PISA); higher = thermal stabilisation; K562 cells, 10 uM, 30 min; active = over 0.2 and 3.5 SD of the protein, either way, in both replicates (recomputed)
In short: (§1)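 Soluble protein was quantified by TMTpro 16plex LC-MS/MS after channel sums were equalised. It was obtained as the supernatant after 21,000xg for 90 min from pooled aliquots of K562 cells (2×10^6 cells/mL, 10 μM compound, 30 min) heated for 3 min across 48°C-58°C and extracted in PBS with 0.5% NP-40 at 4°C. Thermal stability values are relative to control samples and come from duplicates. They are given as log2 fold changes.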

**Q.** With LGALSL (UniProt Q3ZCW2) as the target, how does the log2 fold change read?
**A.** Its log2 fold change is inactive: -0.155.

**Q.** With LRP5 (UniProt O75197) as the target, how does the log2 fold change read?
**A.** The log2 fold change was inactive: 0.014.

**Q.** With LMO4 (UniProt P61968) as the target, how does the log2 fold change read?
**A.** Its log2 fold change is inactive: -0.092.

**Q.** LIG4 (UniProt P49917) was tested. Which log2 fold change did it give?
**A.** The log2 fold change was inactive: 0.335.

**Q.** LEPROT (UniProt O15243) was tested. Which log2 fold change did it give?
**A.** Its log2 fold change is inactive: -0.026.

**Q.** How did the log2 fold change turn out when LRP1 (UniProt Q07954) was run?
**A.** Its log2 fold change is inactive: 0.014.

**Q.** For LRRC14 (UniProt Q15048), which log2 fold change is on record?
**A.** The log2 fold change was inactive: 0.019.

**Q.** For LEPROTL1 isoform 2 (UniProt O95214), which log2 fold change is on record?
**A.** The log2 fold change was inactive: -0.092.

**Q.** For LIG3 (UniProt P49916), which log2 fold change is on record?
**A.** The log2 fold change was inactive: 0.014.

**Q.** Which log2 fold change does the source give for LEG1 (UniProt Q6P5S2) here?
**A.** Its log2 fold change is inactive: -0.023.

**Q.** How did the log2 fold change turn out when L1TD1 (UniProt Q5T7N2) was run?
**A.** Its log2 fold change is inactive: -0.209.

**Q.** How did the log2 fold change turn out when LAMC1 (UniProt P11047) was run?
**A.** The log2 fold change was inactive: 0.526.

**Q.** LGALS3 (UniProt P17931) was tested. Which log2 fold change did it give?
**A.** Its log2 fold change is inactive: -0.07.

**Q.** For KXD1 (UniProt Q9BQD3), which log2 fold change is on record?
**A.** Its log2 fold change is inactive: 0.012.

**Q.** How did the log2 fold change turn out when LIN52 (UniProt Q52LA3) was run?
**A.** Its log2 fold change is inactive: -0.059.

**Q.** How did the log2 fold change turn out when LMLN isoform 3 (UniProt Q96KR4) was run?
**A.** The log2 fold change was inactive: 0.24.

**Q.** Which log2 fold change does the source give for LAMA5 (UniProt O15230) here?
**A.** Its log2 fold change is inactive: 0.045.

**Q.** Which log2 fold change does the source give for LAMB2 (UniProt P55268) here?
**A.** Its log2 fold change is inactive: 0.077.

**Q.** Which log2 fold change does the source give for LRRC42 (UniProt Q9Y546) here?
**A.** Its log2 fold change is inactive: -0.056.

**Q.** For LAMP2 isoform 2 (UniProt P13473), which log2 fold change is on record?
**A.** The log2 fold change was inactive: 0.011.

**Q.** For LAPTM5 (UniProt Q13571), which log2 fold change is on record?
**A.** The log2 fold change was inactive: -0.354.

compound: Cc1ccc(-n2nc(C(C)(C)C)cc2NC(=O)Nc2ccc(OCCN3CCOCC3)c3ccccc23)cc1 [doramapimod]; experiment: as above
In short: as §1

**Q.** Which log2 fold change does the source give for LGALSL (UniProt Q3ZCW2) here?
**A.** Its log2 fold change is inactive: 0.163.

**Q.** How did the log2 fold change turn out when LMO4 (UniProt P61968) was run?
**A.** Its log2 fold change is inactive: 0.008.

**Q.** With LRRC14 (UniProt Q15048) as the target, how does the log2 fold change read?
**A.** Its log2 fold change is inactive: -0.017.

**Q.** With LIMS1 (UniProt P48059) as the target, how does the log2 fold change read?
**A.** The log2 fold change was inactive: 0.084.

**Q.** For LPCAT4 (UniProt Q643R3), which log2 fold change is on record?
**A.** Its log2 fold change is inactive: -0.13.

**Q.** With LEPROTL1 isoform 2 (UniProt O95214) as the target, how does the log2 fold change read?
**A.** The log2 fold change was inactive: 0.141.

**Q.** Which log2 fold change does the source give for L1TD1 (UniProt Q5T7N2) here?
**A.** The log2 fold change was inactive: 0.149.

**Q.** How did the log2 fold change turn out when LDLRAP1 (UniProt Q5SW96) was run?
**A.** The log2 fold change was inactive: 0.18.

**Q.** With LLGL2 (UniProt Q6P1M3) as the target, how does the log2 fold change read?
**A.** Its log2 fold change is inactive: 0.241.

**Q.** LAMP2 isoform 2 (UniProt P13473) was tested. Which log2 fold change did it give?
**A.** Its log2 fold change is inactive: 0.002.

compound: Cc1ccc(C(=O)N(CCCN)[C@@H](c2nc3cc(Cl)ccc3c(=O)n2Cc2ccccc2)C(C)C)cc1 [ispinesib]; experiment: as above
In short: as §1

**Q.** LARP1B, A0A3B3ISF0 was tested. Which log2 fold change did it give?
**A.** The log2 fold change was inactive: -0.161.

**Q.** For LMO4 (UniProt P61968), which log2 fold change is on record?
**A.** The log2 fold change was inactive: 0.172.

**Q.** With LEPROTL1 isoform 2 (UniProt O95214) as the target, how does the log2 fold change read?
**A.** Its log2 fold change is inactive: -0.492.

**Q.** Which log2 fold change does the source give for LBH (UniProt Q53QV2) here?
**A.** Its log2 fold change is inactive: 0.09.

**Q.** How did the log2 fold change turn out when LGALS3 (UniProt P17931) was run?
**A.** Its log2 fold change is inactive: -0.193.

**Q.** With KXD1 (UniProt Q9BQD3) as the target, how does the log2 fold change read?
**A.** Its log2 fold change is inactive: -0.078.

**Q.** How did the log2 fold change turn out when LDLRAP1 (UniProt Q5SW96) was run?
**A.** Its log2 fold change is inactive: -0.088.

**Q.** How did the log2 fold change turn out when LLGL2 (UniProt Q6P1M3) was run?
**A.** Its log2 fold change is inactive: -0.123.

**Q.** LAMB2 (UniProt P55268) was tested. Which log2 fold change did it give?
**A.** Its log2 fold change is inactive: -0.275.

**Q.** LRRC42 (UniProt Q9Y546) was tested. Which log2 fold change did it give?
**A.** Its log2 fold change is inactive: -0.043.

**Q.** Which log2 fold change does the source give for LRMP (UniProt Q12912) here?
**A.** Its log2 fold change is inactive: -0.137.

**Q.** LAPTM5 (UniProt Q13571) was tested. Which log2 fold change did it give?
**A.** Its log2 fold change is inactive: -0.164.
